Measurements reported in PMC3149661.
No constants are given. Whether binding was seen depends on the method and setting. Binding seen in cells or lysates may run through a third protein. Some binding calls cover weakened binding; strength is not graded here.

Chains of the proteins cited; added tags and fusions are not shown. Lines headed by an entry give the natural chain unless they say otherwise; changes in a name come on top. A line that says so, or that is headed by a name, gives the form on record, which may keep a tag or linker.
UniProt Q14457: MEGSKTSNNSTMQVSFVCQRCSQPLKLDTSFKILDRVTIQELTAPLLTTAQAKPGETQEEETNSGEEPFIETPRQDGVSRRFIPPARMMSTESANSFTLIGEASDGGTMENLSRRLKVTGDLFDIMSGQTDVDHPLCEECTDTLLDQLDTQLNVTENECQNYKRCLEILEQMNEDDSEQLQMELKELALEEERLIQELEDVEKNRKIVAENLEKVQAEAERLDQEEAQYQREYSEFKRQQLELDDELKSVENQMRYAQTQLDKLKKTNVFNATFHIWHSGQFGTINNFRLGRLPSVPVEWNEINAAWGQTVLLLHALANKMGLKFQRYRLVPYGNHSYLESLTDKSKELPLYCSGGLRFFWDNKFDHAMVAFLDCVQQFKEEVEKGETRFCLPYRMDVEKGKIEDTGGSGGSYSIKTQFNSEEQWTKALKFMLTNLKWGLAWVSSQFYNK
UniProt P10415: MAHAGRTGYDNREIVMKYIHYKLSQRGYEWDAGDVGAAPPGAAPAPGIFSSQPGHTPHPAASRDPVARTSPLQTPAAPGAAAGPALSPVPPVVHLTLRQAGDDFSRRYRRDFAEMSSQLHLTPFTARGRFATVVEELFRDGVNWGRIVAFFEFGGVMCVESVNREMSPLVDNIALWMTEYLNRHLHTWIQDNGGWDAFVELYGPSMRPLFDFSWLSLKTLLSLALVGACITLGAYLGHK
nonphosphorylatable Myc-Bcl-2 (AAA Myc-Bcl-2) (P10415, form named): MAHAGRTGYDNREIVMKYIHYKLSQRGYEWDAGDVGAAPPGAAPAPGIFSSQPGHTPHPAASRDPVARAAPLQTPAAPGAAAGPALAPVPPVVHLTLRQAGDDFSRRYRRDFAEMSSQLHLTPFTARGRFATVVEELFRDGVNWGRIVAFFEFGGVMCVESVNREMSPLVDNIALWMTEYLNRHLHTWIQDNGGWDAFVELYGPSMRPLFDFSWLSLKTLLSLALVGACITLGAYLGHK

Tests used:
[1] = biological target: Flag-tagged Beclin 1 (UniProt Q14457); assay: co-IP; cells expressing Flag-Beclin 1 and Bcl-2 or C229A Bcl-2, with or without NO donors; method read from the text, the legends of Figures S2C and S2D were not shown
[2] = biological target: Flag-tagged Beclin 1 (UniProt Q14457); assay: co-IP; HeLa cells transfected with Flag-Beclin 1 (or empty Flag) and the partner; immunoprecipitation with anti-Flag M2 affinity agarose gel; immunoblotting with anti-Myc or anti-Vps34 antibody; cells untreated or treated with NO donors

Substance	binding [1]	binding [2]
Bcl-2 (from UniProt P10415 1-239)	binds	–
C229A Bcl-2 (from UniProt P10415 1-239)	binds	–
Myc-tagged Bcl-2 (from UniProt P10415 1-239)	–	binds
nonphosphorylatable Myc-Bcl-2 (AAA Myc-Bcl-2) (from UniProt P10415 1-239)	–	binds
